Results as given in PubChem BioAssay.
Inconclusive means that the source gave no clear call. Such entries were picked first, then a sample of the others. Activity calls are given as the source filed them.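 The calls were made as follows: active = inhibition over a set limit, the all-compound mean plus 3 SD, in both replicate runs; inconclusive = over that limit in just one replicate run; inactive = at or under that limit in both runs.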

Test: RAM pathway blockade in budding yeast – dse1pr::URA3 reporter, 5-FOA selection, pilot screen (AID 869);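 also: 0% = DMSO wells with no growth and 100% = 10 µM 1-NA-PP1 with full growth; RAM network block rescues cells from 5-FOA so hits raise OD615 growth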
Settings: S. cerevisiae dse1pr::URA3 5-FOA growth, OD615, 2 d; at 10 µM; active compounds read high; strain carries analog-sensitive mutant Cbk1 kinase

inhibition, inactive:
CCOC(=O)c1ccccc1NC(=O)Cn1cnc2c(nnn2-c2ccc(C)cc2)c1=O 2.62%
O=C(C1CC1)N1CCCN(C(=O)C2CC2)CC1 2.03%
COc1ccc(-c2nnc(COc3ccc4ccccc4c3)o2)cc1OC 1.22%

inhibition, inconclusive:
CN(C)c1nc2ccc(OCCN3CCCCC3)cc2s1 3.68%
CCOC(=O)C1CCN(C(C(=O)NC2CCCCC2)c2ccc(OC)cc2)CC1 (stereo not given) 3.31%
O=C(CSc1oc(-c2ccccc2)nc1S(=O)(=O)c1ccc(F)cc1)NCC1CCCO1 (stereo not given) 4.12%
CCn1cc(C(=O)NC2CCCCC2)c(=O)c2cc(S(=O)(=O)N(C)C)ccc21 3.44%
COc1ccccc1CCNC(=O)CSc1nc(-c2ccco2)cc(C(F)(F)F)n1 5.12%
COc1ccc(-c2cn3c(C)c(C(=O)N4CCN(c5ccc(F)cc5)CC4)sc3n2)cc1 4.67%
COC(=O)c1cc(=O)[nH]c(SCc2cccc(C)c2)n1 3.96%
CCOC(=O)c1c(NC(=O)c2ccc(Br)o2)sc(C)c1CC 6.7%
CC(C)c1ccc(OC(=O)NCCO)cc1 3.62%
CCOC(=O)c1c(NC(=O)c2cccs2)sc2c1CCC2 4.15%
O=C(Cn1c(=O)oc2cc(S(=O)(=O)N3CCCC3)ccc21)NC1CCCc2ccccc21 (stereo not given) 5.04%
CCCCn1c(CNC(C)=O)nc2ccccc21 4.02%

Three structures from above, arranged by length of the SMILES, ascending:
inhibition, inconclusive:
CCCCn1c(CNC(C)=O)nc2ccccc21 4.02%
CCOC(=O)c1c(NC(=O)c2cccs2)sc2c1CCC2 4.15%
COC(=O)c1cc(=O)[nH]c(SCc2cccc(C)c2)n1 3.96%
